No constants are given. Whether binding was seen depends on the method and setting. Some entries that bind do so weakly or less than the wild type.
Columns and labels:
wild type FGF-2 (human) = wild type FGF-2 (human) (UniProt P09038); test: About 2 femtomole of 125I-labeled wild type FGF-2 mixed with varying amounts of unlabeled wild type FGF-2, DSS crosslinking in solution, SDS-PAGE and autoradiography; data not shown
[1] = biological target: fibroblast growth factor receptor 1 (FGFR1) present on MM14 cells (mouse) (UniProt P16092); test: 125I-labeled ligand (20 pM) bound at 4 C to intact MM14 cells, DSS crosslinking, SDS-PAGE and autoradiography; data not shown
[2] = biological target: fibroblast growth factor receptor 1 (FGFR1) present on MM14 cells (mouse) (UniProt P16092); test: Summary of the MM14 cell surface binding and crosslinking experiment

The chains behind the UniProt entries cited, without tags or fusion partners. Where a name states a change or a piece, a line headed by the entry shows the natural chain unless it says otherwise. Residues count along the entry.
UniProt P09038: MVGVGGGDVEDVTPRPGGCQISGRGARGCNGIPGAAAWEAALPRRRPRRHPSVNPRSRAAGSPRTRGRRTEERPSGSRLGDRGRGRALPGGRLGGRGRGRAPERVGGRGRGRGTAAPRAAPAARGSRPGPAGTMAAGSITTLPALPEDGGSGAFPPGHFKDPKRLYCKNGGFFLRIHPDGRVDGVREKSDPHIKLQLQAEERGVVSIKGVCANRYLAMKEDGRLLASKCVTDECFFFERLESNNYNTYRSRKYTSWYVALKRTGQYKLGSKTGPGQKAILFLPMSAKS
UniProt P16092, residues 22-822: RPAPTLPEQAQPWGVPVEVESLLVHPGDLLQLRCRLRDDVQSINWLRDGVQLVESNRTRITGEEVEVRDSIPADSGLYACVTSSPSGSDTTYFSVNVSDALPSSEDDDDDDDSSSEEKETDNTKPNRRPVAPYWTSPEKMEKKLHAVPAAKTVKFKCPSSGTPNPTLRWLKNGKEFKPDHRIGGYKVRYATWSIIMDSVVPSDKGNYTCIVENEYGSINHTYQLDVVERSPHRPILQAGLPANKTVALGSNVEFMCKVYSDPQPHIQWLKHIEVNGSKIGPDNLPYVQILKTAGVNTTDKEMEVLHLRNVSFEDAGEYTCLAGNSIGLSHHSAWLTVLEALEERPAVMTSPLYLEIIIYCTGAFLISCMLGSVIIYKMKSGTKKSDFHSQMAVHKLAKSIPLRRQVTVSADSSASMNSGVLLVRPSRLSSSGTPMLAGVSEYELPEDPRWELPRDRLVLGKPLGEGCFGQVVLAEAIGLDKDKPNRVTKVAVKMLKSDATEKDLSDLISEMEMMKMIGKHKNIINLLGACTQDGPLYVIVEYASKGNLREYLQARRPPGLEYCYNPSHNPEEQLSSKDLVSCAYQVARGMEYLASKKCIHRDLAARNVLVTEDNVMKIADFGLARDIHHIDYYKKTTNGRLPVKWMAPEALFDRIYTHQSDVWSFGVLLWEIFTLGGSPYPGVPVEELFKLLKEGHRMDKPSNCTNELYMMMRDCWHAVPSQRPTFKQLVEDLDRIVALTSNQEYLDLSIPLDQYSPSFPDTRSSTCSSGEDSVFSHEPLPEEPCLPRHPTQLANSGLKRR

Measured: binding

wild type FGF-2 (from UniProt P09038 143-288) (ligand)
binds: all assays above

Reference: US6800286
